# Assay results: PubChem BioAssay AID743255 (National Center for Advancing Translational Sciences (NCATS), 2014)
# Protein sequences, listed by entry. Tags and fused reporters are not part of them. Lines headed by an entry give the natural chain unless they say otherwise; changes in a name come on top.
# UniProt O94782: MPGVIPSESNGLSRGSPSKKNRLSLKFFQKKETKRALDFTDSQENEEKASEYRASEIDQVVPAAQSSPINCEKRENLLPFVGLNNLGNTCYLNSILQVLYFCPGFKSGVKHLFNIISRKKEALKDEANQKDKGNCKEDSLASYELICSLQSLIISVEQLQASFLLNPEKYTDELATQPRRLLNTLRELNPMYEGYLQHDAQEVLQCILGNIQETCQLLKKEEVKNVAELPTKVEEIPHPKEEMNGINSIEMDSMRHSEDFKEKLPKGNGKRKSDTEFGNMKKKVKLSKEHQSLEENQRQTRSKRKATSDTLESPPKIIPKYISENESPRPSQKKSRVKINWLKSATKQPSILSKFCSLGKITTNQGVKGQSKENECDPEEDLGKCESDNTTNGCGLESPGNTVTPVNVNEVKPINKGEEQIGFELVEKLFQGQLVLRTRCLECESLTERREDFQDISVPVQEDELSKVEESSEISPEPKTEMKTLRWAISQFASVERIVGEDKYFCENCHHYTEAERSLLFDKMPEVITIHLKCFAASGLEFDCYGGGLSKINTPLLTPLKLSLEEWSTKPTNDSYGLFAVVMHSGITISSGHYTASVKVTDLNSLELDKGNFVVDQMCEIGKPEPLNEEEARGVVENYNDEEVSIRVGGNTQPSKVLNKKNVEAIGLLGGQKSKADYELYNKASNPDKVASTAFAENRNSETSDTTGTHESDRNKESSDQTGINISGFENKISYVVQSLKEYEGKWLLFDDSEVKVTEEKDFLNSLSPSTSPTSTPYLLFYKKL
# In all, about 390,000 compounds went through this assay and about 910 (0.23%) were called active. Inconclusive means that the source gave no clear call. Such entries were picked first, then a sample of the others. The call rests on the fitted dose curve; in most records, active means well fitted inhibition curve with a large enough effect; inconclusive means small, poorly fitted or top-dose-only effect; inactive means no such curve, though single readings can be large or run the other way. Potencies beside an inconclusive call are fits to weak or partial responses and may not hold up.
# Target: Ubiquitin carboxyl-terminal hydrolase 1 (Homo sapiens) (UniProt O94782)
# Assay: Inhibitors of USP1/UAF1: Primary Screen; further: nearly all actives have a fitted effect of over 60% in size
# Conditions: recombinant USP1/UAF1, Ub-Rhodamine cleavage fluorescence; activity change, negative = inhibition: at 57.1 µM (top of the series)
# In short: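 High-throughput fluorogenic screen: 1nM USP1/UAF1 complex, Ub-Rho substrate 150nM final, 50mM HEPES pH 7.8 with 0.5mM EDTA, 0.1 mg/ml BSA, 1mM TCEP and 0.01% Tween-20.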
# On the % scale 0 is the no-effect control and ±100 the full control effect; potency means the concentration at half of the fitted maximal effect.
Compound,Potency,"activity change, negative = inhibition"
O=C(O)C(CCc1ccccn1)c1ccccc1 (configuration not stated),"inconclusive: 35.5 µM [inhibitor, partial curve, poor fit]",–
CN1CCN(C(CNC(=O)C(=O)Nc2cccc(Cl)c2)c2ccc3c(c2)OCO3)CC1 (configuration not stated),–,inactive: -26.2%
C[C@H]1CN(S(=O)C(C)(C)C)[C@@H](CCO)/C1=C\c1ccccc1 (some centres not stated),"inconclusive: 15.8 µM [inhibitor, partial curve]",–
Cc1ccc(C)c(N2CCN(C(=O)CCc3nc(-c4ccc(F)cc4)no3)CC2)c1,"inconclusive: 44.7 µM [inhibitor, partial curve, poor fit]",–
COc1ccc(Cl)cc1NC(=O)c1c(NCc2ccc(C)o2)sc2c1CCCC2,"inconclusive: 17.8 µM [inhibitor, single point]",–
N#Cc1ccc(NC(=O)CN2C(=O)NC3(CCCC3)C2=O)cc1,"inconclusive: 14.1 µM [inhibitor, partial curve]",–
COC(=O)C1CCN(C(=O)c2cc(-c3ccco3)nc3ccccc23)CC1,"inconclusive: 79.4 µM [inhibitor, partial curve, poor fit]",–
COc1ccc(C(NC(C)=O)c2nccc3cc(OC)c(OC)cc23)cc1OC (configuration not stated),"inconclusive: 44.7 µM [inhibitor, partial curve, poor fit]",–
CSc1nc(-c2ccc(N(C)C)cc2)c(C#N)c(=O)n1C,"inconclusive: 6.31 µM [inhibitor, single point]",–
CCOC(=O)c1c(C)sc(-c2c(-c3ccc(OC)c(F)c3)[nH]c3c2c(=O)[nH]c(=O)n3C)c1O,active: 22.4 µM,–
COc1cc(/C=C/c2ccc3cccc(O)c3n2)ccc1O,"inconclusive: 39.8 µM [inhibitor, partial curve, poor fit]",–
Cc1ccc(NC(=O)CCCSc2nc3ccccc3[nH]2)cc1,–,inactive: -19.1%
O=S(=O)(c1ccc2ccccc2c1)N1CCN(C(=S)Nc2ccc(F)c(Cl)c2)CC1,–,inactive: -13.3%
CC(C)COc1ccccc1C1CC(=O)Nc2cc3c(cc21)OCO3 (configuration not stated),"inconclusive: 44.7 µM [inhibitor, partial curve, poor fit]",–
COc1ccc(C(=O)COC(=O)c2ccc3c(c2)OCCO3)c(OC)c1,"inconclusive: 79.4 µM [inhibitor, partial curve, poor fit]",–
CC(=O)Nc1ccc(N(C(=O)c2ccco2)C(C(=O)NC2CCCC2)c2ccc(N(C)C)cc2)cc1 (configuration not stated),"inconclusive: 5.62 µM [inhibitor, partial curve]",–
COc1ccccc1CNC(=O)Cn1nc(C)c2nn(-c3ccc(Cl)cc3)c(C)c2c1=O,"inconclusive: 0.631 µM [inhibitor, full curve]",–
C=CCc1c(C)nc2nc(SCC(=O)Nc3ccc(OCC)cc3)nn2c1C,"inconclusive: 0.316 µM [inhibitor, full curve, poor fit]",–
Cc1[nH]c2ccccc2c1CCNC(=O)c1ccc2c(c1[N+](=O)[O-])C(=O)c1ccccc1C2=O,–,inactive: -1.42%
CCc1ccc(NC(=O)CSc2nnc(-c3cc4occc4n3C)n2-c2ccccc2C)cc1,"inconclusive: 0.398 µM [inhibitor, full curve, poor fit]",–
CCCCOc1ccc(C2=NC(c3ccccc3)=Nc3ccc(OC)cc3N2)cc1,"inconclusive: 5.62 µM [inhibitor, single point]",–

Compound,Potency,"activity change, negative = inhibition"
Cc1cnc(C(=O)OCC(=O)c2ccc(C3CCCCC3)cc2)cn1,–,inactive: 4.52%
Oc1ccc(Br)cc1CNc1nccs1,–,inactive: -10.5%
Fc1ccc(NC(=S)NC2CC3CCCC(C2)N3Cc2cccs2)cc1 (configuration not stated),"inconclusive: 15.8 µM [inhibitor, partial curve]",–
N#Cc1c2c(c(=S)n(-c3ccccc3)c1N)CCCC2,"inconclusive: 35.5 µM [inhibitor, partial curve]",–
NC(=NCCc1c[nH]c2ccccc12)NS(=O)(=O)c1ccc(F)cc1,–,inactive: -0.75%
CC(C)C(NCC(=O)Nc1ccccc1C(=O)NC1CC1)c1ccccc1 (configuration not stated),"inconclusive: 44.7 µM [inhibitor, partial curve, poor fit]",–
COc1ccc(CCNc2nc(=S)[nH]c3cc(OC)c(OC)cc23)cc1OC,–,inactive: -8.2%
Cn1c(Oc2ccc(F)cc2)c(C=O)c2ccccc21,–,inactive: -20.3%
CCc1ccc(S(=O)(=O)c2nnn(-c3cccc(C)c3)c2N)cc1,"inconclusive: 0.178 µM [inhibitor, full curve, poor fit]",–
CCOC(=O)C(Cc1ccccc1)C(=O)Nc1cccc(C)c1 (configuration not stated),–,inactive: -7.87%
COc1ccccc1CNC(=O)c1ccc(CS(=O)(=O)c2ccccc2)o1,"inconclusive: 28.2 µM [inhibitor, single point]",–
CC(=O)N1CCc2c(sc3c2c(=O)n(Cc2ccccc2)c(=O)n3CC(=O)Nc2ccc(C)c(F)c2)C1,"inconclusive: 14.1 µM [inhibitor, partial curve, poor fit]",–
CCOC(=O)c1c(-c2ccccc2)oc2ccc(NS(=O)(=O)c3ccc(C(C)C)cc3)cc12,"inconclusive: 7.94 µM [inhibitor, full curve, poor fit]",–
COc1ccc(CCC(=O)OCc2csc(CC(=O)Nc3ccc(C)cc3)n2)cc1OC,–,inactive: -9.65%
N#C/C(=C/c1ccc(Sc2nc3ccccc3[nH]2)o1)c1cccc(F)c1,–,inactive: 0.443%
CC(C)(C)NCC(O)COc1ccccc1C(=O)CCc1ccccc1 (configuration not stated),"inconclusive: 0.447 µM [inhibitor, full curve, poor fit]",–
COc1cc(/C=C2/C(=O)c3cccc([N+](=O)[O-])c3C2=O)c(Br)cc1O,"inconclusive: 35.5 µM [inhibitor, partial curve]",–
Oc1c(Cl)cc(Cl)cc1C=Nc1ccc(Br)cc1,"inconclusive: 35.5 µM [inhibitor, single point]",–
COC(=O)c1ccccc1N/C=C1\CCc2c(c(C)nn2-c2ccccn2)C1=O,"inconclusive: 28.2 µM [inhibitor, partial curve]",–
CN1CC=C2C(C#N)=C(N)C(C#N)(C#N)C(CCc3ccccc3)C2C1 (configuration not stated),"inconclusive: 31.6 µM [inhibitor, partial curve, poor fit]",–
O=C(CCn1cnc2onc(-c3ccc(F)cc3)c2c1=O)N1CCN(c2cccc(Cl)c2)CC1,"inconclusive: 6.31 µM [inhibitor, single point]",–

# Arranged by formula weight (low to high): 3 of the compounds above
Compound,Potency,"activity change, negative = inhibition"
Cn1c(Oc2ccc(F)cc2)c(C=O)c2ccccc21,–,inactive: -20.3%
CN1CC=C2C(C#N)=C(N)C(C#N)(C#N)C(CCc3ccccc3)C2C1 (configuration not stated),"inconclusive: 31.6 µM [inhibitor, partial curve, poor fit]",–
COc1ccc(CCC(=O)OCc2csc(CC(=O)Nc3ccc(C)cc3)n2)cc1OC,–,inactive: -9.65%
